Laboratory results from patent US20090209473A1, “Componds and methods for pormoting angiogenesis” (priority 2003, published 2009).

Test system: Oxygen-induced retinopathy mice
Experiment: Oxygen-induced retinopathy mouse model, retinal whole mount analysis
Format: in vivo
Details: 100 mg/kg s.c. once daily days 12-16, versus control
From the text: Oxygen-induced retinopathy mice were used to determine the extent and effect of gamma-secretase inhibitors on the angiogenic process. Mice with oxygen induced retinopathy (OIR mice) are a commonly-used model and are described in the literature (see, Smith et al, supra). They are at times referred to as retinopathy of prematurity models or ROP mice. The model takes advantage of the fact that full term mice pups are born with an immature retinal vascularization which matures during the first three weeks of postnatal growth. Briefly, neonatal mice (NMRI/C57b1) from the same litter were placed, with their nursing mother, in a hyperoxic environment (75% oxygen) at age day seven. After exposure to the hyperoxic environment for 5 days, the 12-day old pups were removed to normal air. In the treated mice, DAPT was administered once daily during age days 12-16. Control pups were treated the same way but injected with the vehicle. At post natal day 17 the mice were euthanized and the retinas were prepared for whole mount immunohistochemistry. Except for the mode of injection, the stock solution of DAPT was prepared and administered essentially as described in Lanz et al., (2003, J. Pharmacol. Exp. Ther. 305:864-71). […] This can be quantified in the superficial capillary plexus by counting the number of capillary enclosed areas in the peripheral part of the retina.

## C[C@H](NC(=O)Cc1cc(F)cc(F)c1)C(=O)N[C@H](C(=O)OC(C)(C)C)c1ccccc1 [DAPT]
  density of GFAP positive astrocytes in retina: Little if any difference
